Experimental data from publication doi:10.1101/2023.09.30.560269.
These are yes or no findings as the source states them, for the method shown. In cells and extracts the contact can be indirect. Some results given as binding are weak or reduced against the parent protein; the word gives no strength.

Chains of the proteins cited; added tags and fusions are not shown. Residues count along the entry.
UniProt P40189, residues 23-918: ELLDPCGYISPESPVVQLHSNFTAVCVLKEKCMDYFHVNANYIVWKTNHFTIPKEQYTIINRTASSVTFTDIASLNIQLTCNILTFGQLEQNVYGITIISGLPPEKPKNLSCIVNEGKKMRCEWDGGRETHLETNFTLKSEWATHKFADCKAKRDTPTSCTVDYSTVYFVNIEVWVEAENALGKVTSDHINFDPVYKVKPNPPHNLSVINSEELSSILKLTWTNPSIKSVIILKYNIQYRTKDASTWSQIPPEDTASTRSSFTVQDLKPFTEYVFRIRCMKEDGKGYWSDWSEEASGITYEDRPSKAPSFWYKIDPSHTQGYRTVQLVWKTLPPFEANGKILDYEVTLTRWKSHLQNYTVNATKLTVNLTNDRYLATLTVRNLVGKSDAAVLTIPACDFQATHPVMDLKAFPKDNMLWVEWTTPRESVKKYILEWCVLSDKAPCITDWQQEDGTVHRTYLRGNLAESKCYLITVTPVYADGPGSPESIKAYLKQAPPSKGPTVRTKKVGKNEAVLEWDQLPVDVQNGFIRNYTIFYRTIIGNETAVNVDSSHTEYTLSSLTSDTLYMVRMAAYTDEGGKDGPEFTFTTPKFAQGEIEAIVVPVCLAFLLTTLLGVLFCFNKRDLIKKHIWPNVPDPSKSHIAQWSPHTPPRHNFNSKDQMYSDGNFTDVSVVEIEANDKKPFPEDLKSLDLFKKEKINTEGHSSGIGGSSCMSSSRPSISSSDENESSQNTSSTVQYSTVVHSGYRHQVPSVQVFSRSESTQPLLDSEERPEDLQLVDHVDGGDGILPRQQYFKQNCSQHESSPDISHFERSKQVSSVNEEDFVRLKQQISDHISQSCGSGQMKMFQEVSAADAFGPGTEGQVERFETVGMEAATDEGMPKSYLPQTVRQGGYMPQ

Molecular target: T1, LIFR (endogenous, MKN45 cells) (human (endogenous in MKN45)) (UniProt P42702)
T1 sequence: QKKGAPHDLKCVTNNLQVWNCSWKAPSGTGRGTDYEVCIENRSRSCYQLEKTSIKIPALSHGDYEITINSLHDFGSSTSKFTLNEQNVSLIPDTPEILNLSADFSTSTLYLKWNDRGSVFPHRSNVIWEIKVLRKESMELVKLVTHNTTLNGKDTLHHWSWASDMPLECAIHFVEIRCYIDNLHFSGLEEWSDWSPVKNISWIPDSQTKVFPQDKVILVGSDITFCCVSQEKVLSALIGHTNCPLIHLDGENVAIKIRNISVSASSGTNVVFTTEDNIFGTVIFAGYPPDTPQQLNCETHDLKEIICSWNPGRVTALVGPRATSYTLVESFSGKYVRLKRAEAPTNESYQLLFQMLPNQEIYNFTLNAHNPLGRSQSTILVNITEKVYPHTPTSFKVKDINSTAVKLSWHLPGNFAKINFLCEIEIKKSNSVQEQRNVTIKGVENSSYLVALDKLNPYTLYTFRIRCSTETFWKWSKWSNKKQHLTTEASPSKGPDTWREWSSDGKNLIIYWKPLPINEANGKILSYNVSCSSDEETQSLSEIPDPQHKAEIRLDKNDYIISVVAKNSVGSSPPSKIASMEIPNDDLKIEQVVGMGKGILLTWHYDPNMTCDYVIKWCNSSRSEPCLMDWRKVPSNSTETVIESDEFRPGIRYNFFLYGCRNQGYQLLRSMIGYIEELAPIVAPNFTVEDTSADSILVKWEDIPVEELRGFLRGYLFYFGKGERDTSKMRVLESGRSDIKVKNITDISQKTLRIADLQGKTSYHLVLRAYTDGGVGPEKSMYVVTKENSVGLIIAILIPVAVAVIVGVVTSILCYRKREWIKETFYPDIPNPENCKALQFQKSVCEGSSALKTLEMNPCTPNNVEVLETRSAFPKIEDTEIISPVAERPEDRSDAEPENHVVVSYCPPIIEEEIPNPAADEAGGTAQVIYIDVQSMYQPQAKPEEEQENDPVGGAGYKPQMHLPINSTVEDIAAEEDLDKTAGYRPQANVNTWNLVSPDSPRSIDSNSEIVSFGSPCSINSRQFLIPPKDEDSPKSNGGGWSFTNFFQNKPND
Assay: co-IP

## glycoprotein (gp) 130 (endogenous, MKN45 cells) (from UniProt P40189 23-918) (receptor)
  binding: binds
